# Reference: PubChem BioAssay AID540276 (National Center for Advancing Translational Sciences (NCATS), 2011)
# In all, about 300,000 compounds went through this assay and about 5,400 (1.8%) were called active. The inconclusive results got no clear call from the source; some entries with a clear call stand among them for comparison. The call rests on the fitted dose curve; tested in HEK293 cells. Potencies beside an inconclusive call are fits to weak or partial responses and may not hold up.
# Assay: qHTS for inhibitors of binding or entry into cells for Marburg Virus
# Conditions: Marburg virus pseudotyped entry inhibition, cell reporter; activity change, negative = inhibition: at 37.8 µM (top of the series) unless noted
# On the % scale 0 is the no-effect control and ±100 the full control effect; potency means the concentration at half of the fitted maximal effect.
Structure (SMILES),Potency,"activity change, negative = inhibition"
Cc1ccccc1Nc1sc(C(=O)Nc2cccc(Cl)c2)c(N)c1C(N)=O,"inconclusive: 22.4 µM [inhibitor, single point]",
CCOC(=O)c1c(NC(=S)Nc2cccc(C)c2)sc2c1CC(C)(C)SC2,,inactive: -24.9%
CCOC(CNC(=O)C(=O)Nc1cc2c3c(c1)CCN3C(=O)CC2)OCC,"inconclusive: 3.55 µM [inhibitor, single point]",
COc1ccc(CN(C(=O)c2cc3ccccc3oc2=O)C2CCS(=O)(=O)C2)cc1OC (configuration not stated),"inconclusive: 11.2 µM [activator, partial curve, poor fit]",
COc1ccccc1-c1noc(-c2ccc(NC3CCCCC3)c([N+](=O)[O-])c2)n1,,inactive: -1.19% [at 46.1 µM]
CCCn1c(SCC(=O)c2cc(OC)ccc2OC)nnc1-c1ccco1,,inactive: 0.0097%
COc1ccc2nc(Nc3ccccc3)sc2c1,"inconclusive: 35.5 µM [inhibitor, single point]",
CCN(CC)CCCNC(=O)CCCn1ncn2c(cc3occc32)c1=O,,inactive: -8.05% [at 46.1 µM]
Cc1cc(N2CCN(S(=O)(=O)c3ccc(Cl)cc3)CC2)c2ccccc2n1,"inconclusive: 5.17 µM [inhibitor, partial curve, poor fit]",
Cc1ccccc1CSc1nsc(N)n1,,inactive: -21.9%
O=C(c1ccc2ccccc2n1)N1CCN(Cc2c(F)cccc2Cl)CC1,"inconclusive: 6.31 µM [activator, single point]",
COc1ccc(NC(=O)C(NC(=O)Cc2cccs2)c2ccccc2)cc1 (configuration not stated),"inconclusive: 0.562 µM [inhibitor, single point]",
O=S(=O)(Cc1ccccc1)c1cnc2ccccc2n1,,inactive: -14%
Cc1cccc(Cn2c(SCc3ccc(C(=O)NCc4ccccc4F)cc3)nc3ccncc32)c1,"inconclusive: 10 µM [inhibitor, partial curve, poor fit]",
CC1CCN(C(=O)C2CCN(S(=O)(=O)c3cccs3)CC2)CC1,"inconclusive: 22.4 µM [activator, single point]",
CC(C)(C)c1ccc(C(=O)NC(=S)NCc2cccnc2)cc1,"inconclusive: 2 µM [inhibitor, partial curve, poor fit]",
CCC(=O)Nc1ccccc1C(=O)N1CCCC1,"inconclusive: 5.62 µM [activator, single point]",
Cc1ccc(OCC(=O)NC(=S)Nc2cccc(NC(=O)c3ccc(Cl)cc3Cl)c2)cc1,,inactive: 4.62%
Cc1ccc(NC(=O)c2cccs2)cc1,,inactive: -4.58%

# Some of the entries so far, as tab-separated lines:
Structure (SMILES)	Potency	activity change, negative = inhibition
CC1CCN(C(=O)C2CCN(S(=O)(=O)c3cccs3)CC2)CC1	inconclusive: 22.4 µM [activator, single point]	
CCC(=O)Nc1ccccc1C(=O)N1CCCC1	inconclusive: 5.62 µM [activator, single point]	

# Next entries follow.

Structure (SMILES),Potency,"activity change, negative = inhibition"
CCc1ccc(NC(=O)CSc2nc3ccccc3c(=O)n2CCCC(=O)N2CCCC2)cc1,active: 9.2 µM,
Cc1ccc(S(=O)(=O)N(CC(=O)N=Nc2c(O)[nH]c3ccccc23)c2ccc(C)c(C)c2)cc1,"inconclusive: 35.5 µM [inhibitor, partial curve, poor fit]",
CCCOC(=O)CSC1=C(C#N)[C@H](c2ccc3c(c2)OCO3)CC(=O)N1,"inconclusive: 35.5 µM [inhibitor, single point]",
Cc1cc(=O)n2[nH]c(N)c(N=Nc3ccccc3F)c2n1,"inconclusive: 35.5 µM [inhibitor, single point]",
CCOc1ccccc1NC(=O)c1nnn(-c2ccc3c(c2)OCCO3)c1N,"inconclusive: 35.5 µM [inhibitor, single point]",
c1ccc(-c2noc(-c3cccnc3NCc3ccco3)n2)cc1,,inactive: -1.44% [at 46.1 µM]
C[C@H]1CCCC(=O)CCCCCc2cc(O)cc(O)c2C(=O)O1,inactive,
CCC1CCCCN1CCCNC(=O)c1ccc(N2CCCC2=O)cc1 (configuration not stated),"inconclusive: 11.2 µM [inhibitor, partial curve, poor fit]",
Cc1cc(/C([O-])=C(/C(=S)Nc2ccc(F)cc2)[n+]2ccccc2)c(C)n1-c1ccc(F)cc1,,inactive: 10.1%
Cc1cccc(C)c1OCc1cc(=O)n2c3c(sc2n1)CCCC3,,inactive: -7.75% [at 46.1 µM]
CNC(=S)Nc1cccc(C(=O)OC)c1,"inconclusive: 7.08 µM [activator, full curve, poor fit]",
COc1ccc(NC(=O)Cc2nnc(SCC(=O)Nc3nccs3)n2C)cc1,,inactive: -0.0949% [at 46.1 µM]
O=C(COC(=O)c1cc(Cl)ccc1Cl)NCCN1C(=O)CSC1=O,"inconclusive: 0.562 µM [inhibitor, full curve, poor fit]",
CC(=O)Nc1ccc(S(=O)(=O)NCCC(=O)Nc2ccc(C)c(Cl)c2)cc1,,inactive: 2.05%
O=C(O)c1cccc2c1C(=O)c1ccccc1-2,,inactive: 3.58% [at 46.1 µM]
COCCn1c(C)cc(C(=O)COc2nc3ccccc3nc2C)c1C,"inconclusive: 2 µM [inhibitor, partial curve]",
CCOC(=O)C1=C(c2ccccc2)O/C(=C(\C(=O)OC)C(F)(F)F)S1,,inactive: -17.8%
COCCNC(=O)COC(=O)c1nsc(Cl)c1Cl,"inconclusive: 0.651 µM [inhibitor, full curve, poor fit]",
